The source of these data is patent US20030203451A1.

By UniProt entry, the sequences of proteins in these tests, tags left out. Where a name states a change or a piece, a line headed by the entry shows the natural chain unless it says otherwise.
UniProt Q8NAC3: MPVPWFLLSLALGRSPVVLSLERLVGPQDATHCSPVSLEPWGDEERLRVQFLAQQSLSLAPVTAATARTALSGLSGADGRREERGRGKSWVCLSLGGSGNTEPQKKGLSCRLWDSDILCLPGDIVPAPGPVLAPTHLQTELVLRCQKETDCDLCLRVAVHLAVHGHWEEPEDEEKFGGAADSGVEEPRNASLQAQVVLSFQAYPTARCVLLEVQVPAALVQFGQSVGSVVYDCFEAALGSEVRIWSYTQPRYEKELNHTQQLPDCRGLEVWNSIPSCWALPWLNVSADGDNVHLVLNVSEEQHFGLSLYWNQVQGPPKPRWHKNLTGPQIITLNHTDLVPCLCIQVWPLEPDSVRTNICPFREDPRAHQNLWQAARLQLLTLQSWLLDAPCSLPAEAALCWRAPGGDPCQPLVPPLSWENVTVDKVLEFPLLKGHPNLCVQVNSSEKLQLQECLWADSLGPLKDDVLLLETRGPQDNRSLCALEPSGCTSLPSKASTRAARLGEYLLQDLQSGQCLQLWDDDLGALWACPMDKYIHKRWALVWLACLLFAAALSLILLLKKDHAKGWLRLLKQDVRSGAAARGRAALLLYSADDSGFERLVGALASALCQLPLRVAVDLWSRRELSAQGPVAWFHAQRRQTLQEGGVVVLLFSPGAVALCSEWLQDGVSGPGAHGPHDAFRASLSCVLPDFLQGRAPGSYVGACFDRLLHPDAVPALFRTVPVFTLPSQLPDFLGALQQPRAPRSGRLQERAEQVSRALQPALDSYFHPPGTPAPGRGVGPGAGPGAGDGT

For assay [1], the target named is T1, His-epitope tagged IL-17RH1 receptor extracellular domain (human) (UniProt Q9NRM6).
T1 sequence: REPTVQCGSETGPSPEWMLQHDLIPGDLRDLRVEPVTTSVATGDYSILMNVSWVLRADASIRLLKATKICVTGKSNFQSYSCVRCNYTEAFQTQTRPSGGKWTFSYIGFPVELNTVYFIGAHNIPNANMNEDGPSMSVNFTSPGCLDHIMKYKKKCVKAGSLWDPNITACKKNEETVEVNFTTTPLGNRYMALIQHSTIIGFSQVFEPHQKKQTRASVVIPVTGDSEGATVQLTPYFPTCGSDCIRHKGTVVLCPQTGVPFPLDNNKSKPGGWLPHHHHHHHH
Kind of assay: Protein A pull-down of ligand-Fc, Western blot for His-tagged IL-17RH1 ECD. A general note: A western blot detects proteins with antibodies after separation by electrophoresis.

For assay [2], the target named is T1, His-epitope tagged IL-17RH1 receptor extracellular domain (human). Kind of assay: pull-down of His-tagged IL-17RH1 ECD with ligand-Fc and Protein A beads, Western blot with anti-His antibody.
Assay [3] concerns the target T2, PRO5801 (human IL-17RH1 receptor), form not specified (human) (UniProt Q9NRM6).
T2 sequence: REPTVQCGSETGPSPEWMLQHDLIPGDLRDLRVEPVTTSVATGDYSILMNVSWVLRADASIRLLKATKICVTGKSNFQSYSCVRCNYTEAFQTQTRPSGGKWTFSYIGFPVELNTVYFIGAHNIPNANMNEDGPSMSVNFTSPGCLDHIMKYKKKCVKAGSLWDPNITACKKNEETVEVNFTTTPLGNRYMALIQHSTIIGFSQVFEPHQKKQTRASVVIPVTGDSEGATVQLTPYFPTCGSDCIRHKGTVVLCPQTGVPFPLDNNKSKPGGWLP
The assay is described as follows: receptor/ligand screen of Example 20.

The target in assay [4] is T2, PRO5801 (human IL-17RH1 receptor), form not specified (human). Kind of assay: summary scheme of receptor-ligand specificities (FIG. 35).
The target of assay [5] is T3, human IL-17 receptor (IL-17R; designated PRO1), form not specified (human), Q96F46. The assay is described as follows: receptor/ligand screen of Example 20. The conditions noted are these: remark: other sources report otherwise.
The target of assay [6] is T3, human IL-17 receptor (IL-17R; …). Kind of assay: summary scheme of receptor-ligand specificities (FIG. 35). The conditions noted are these: remark: other sources report otherwise.
Assay [7] concerns the target T4, PRO20040 (human IL-17RH2 receptor), form not specified (human) (UniProt Q8NAC3).
T4 sequence: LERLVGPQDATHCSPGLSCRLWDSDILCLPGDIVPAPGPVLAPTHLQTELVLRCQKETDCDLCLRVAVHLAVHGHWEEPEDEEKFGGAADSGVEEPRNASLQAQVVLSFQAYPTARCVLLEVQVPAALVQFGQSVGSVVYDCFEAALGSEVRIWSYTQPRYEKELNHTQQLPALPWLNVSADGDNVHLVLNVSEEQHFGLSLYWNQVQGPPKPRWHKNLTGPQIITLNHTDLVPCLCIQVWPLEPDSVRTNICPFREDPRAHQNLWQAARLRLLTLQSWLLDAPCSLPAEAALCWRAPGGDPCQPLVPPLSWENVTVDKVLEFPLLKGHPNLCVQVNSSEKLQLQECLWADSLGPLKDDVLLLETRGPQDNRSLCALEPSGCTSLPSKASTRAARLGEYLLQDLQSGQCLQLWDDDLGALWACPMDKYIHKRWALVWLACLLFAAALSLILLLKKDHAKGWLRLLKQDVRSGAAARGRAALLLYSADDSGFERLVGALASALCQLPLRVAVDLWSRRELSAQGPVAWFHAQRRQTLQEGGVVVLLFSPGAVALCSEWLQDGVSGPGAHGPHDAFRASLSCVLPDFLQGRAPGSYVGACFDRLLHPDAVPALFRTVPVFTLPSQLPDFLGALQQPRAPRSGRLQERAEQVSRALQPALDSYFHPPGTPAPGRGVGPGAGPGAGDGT
Kind of assay: receptor/ligand screen of Example 20.

For assay [8], the target named is T4, PRO20040 (human IL-17RH2 receptor), form not specified (human). Kind of assay: receptor/ligand screen of Example 20 (FIG. 35).
The target is the same in assay [9]. The assay is described as follows: summary scheme of receptor-ligand specificities (FIG. 35).
Assay [10] deals with T2, PRO5801 (human IL-17RH1 receptor), form not specified (human). The assay is described as follows: receptor/ligand screen of Example 20 (immunoadhesin on transfected cells, or tagged ligand co-precipitated with receptor-Fc).

No constants are given. Whether binding was seen depends on the method and setting. For some of these results: In cells and extracts the contact can be indirect. Some results given as binding are weak or reduced against the parent protein; the word gives no strength. For some of these results: Where a sequence is shown, tags or fusion partners need not be part of it.

B1: IL-17E-Fc fusion protein (IL-17E immunoadhesin) (Fc fusion, not shown: a dimerising Fc or GST)
chain: YSHWPSCCPSKGQDTSEELLRWSTVPVPPLEPARPNRHPESCRASEDGPLNSRAISPWRYELDRDLNRLPQDLYHARCLCPHCVSLQTGSHMDPRGNSELLYHNQTVFYRRPCHGEKGTHKGYCLERRLYRVSLACVCVRPRVMG
For B1, the binding entry in assay [1] and in assay [2] was “binds” each time.

B2: PRO10272 (human IL-17E ligand), as tested in the Example 20 screen (ligand, not shown: a dimerising Fc or GST)
chain: B1 chain
In the case of B2, the binding result in [3] and in assay [4] was “binds” throughout.

B3: PRO20110 (human IL-17F ligand), as tested in the Example 20 screen, Q96PD4 31-163 (ligand, not shown: a dimerising Fc or GST)
chain: RKIPKVGHTFFQKPESCPPVPGGSMKLDIGIINENQRVSMSRNIESRSTSPWNYTVTWDPNRYPSEVVQAQCRNLGCINAQGKEDISMNSVPIQQETLVVRRKHQGCSVSFQLEKVLVTVGCTCVTPVIHHVQ
Turning to B3, the binding entry in assay [5] and in assay [6] was “binds” each time.

B4: PRO20110 (human IL-17F ligand), as tested in the Example 20 screen (ligand, not shown: a dimerising Fc or GST)
chain: B3 chain
For the molecule B4, the binding entry in [7], in [8] and in [9] was “binds” throughout.

B5: IL-17B.Fc fusion protein (Fc fusion, not shown: a dimerising Fc or GST)
chain: QPRSPKSKRKGQGRPGPLAPGPHQVPLDLVSRMKPYARMEEYERNIEEMVAQLRNSSELAQRKCEVNLQLWMSNKRSLSPWGYSINHDPSRIPVDLPEARCLCLGCVNPFTMQEDRSMVSVPVFSQVPVRRRLCPPPPRTGPCRQRAVMETIAVGCTCIF
For B5, the binding entry in assay [1] and in assay [2] was “binds” each time.

B6: PRO1031 (human IL-17B ligand), as tested in the Example 20 screen (ligand, not shown: a dimerising Fc or GST)
chain: B5 chain
As for B6, the binding entry in [4] and in assay [10] was “binds” throughout.
